Assay results as given in patent US9855346B2, “Fluorescent dye compositions and uses thereof” (Chang Gung University of Science and Technology, priority 2014, dated 2018).
Some results were stated once for a whole list of compounds, not compound by compound.

Experiment: In vivo real-time optical imaging after IV injection
Design: species or system Sprague-Dawley rats
Details: rats
Description: Male Sprague-Dawley rats aged 8˜10 weeks was supplied by Lasco (Taipei, Taiwan). Animal experimental protocol was approved by the Institutional Animal Care and Use Committee of Chang Gung University, Taiwan. The rats had free access to water and food at all time. The rats were anesthetized and injected with the compositions of the present invention or the control solution (dimethyl sulfoxide:Tween 80:normal saline=4:2:4) at a DiR dose of 40 μg/kg via femoral vein. In vivo real-time imaging was acquired using Pearl® Impulse at NIR wavelength. Rats were sacrificed 4 h post-injection. The following organs were collected and washed with normal saline: skin, muscle, heart, lungs, liver, spleen, and kidneys. The fluorescence intensity in these organs was assessed Ex Vivo by Pearl® Impulse. In Vivo optical images were taken after ICG, control DiR solution (with 40% v/w dimethyl sulfoxide) and S1-S4 compositions were administered into the rats via intravenous (IV) injection.

## CC1(C)C(/C=C/C=C/C=C/C=C2\N(CCCCS(=O)(=O)O)c3ccc4ccccc4c3C2(C)C)=[N+](CCCCS(=O)(=O)[O-])c2ccc3ccccc3c21 [ICG, Indocyanine green]
  time to distribution of fluorescence activity throughout the body: ≤ 1 min
